Results on eleven molecules are retold here after article PMC11253597.

The chains behind the UniProt entries cited, without tags or fusion partners. Where a name states a change or a piece, a line headed by the entry shows the natural chain unless it says otherwise.
UniProt Q8ZMM9: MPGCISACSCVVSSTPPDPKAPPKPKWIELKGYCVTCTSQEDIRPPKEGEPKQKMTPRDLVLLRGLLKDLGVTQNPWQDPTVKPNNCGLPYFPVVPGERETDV
UniProt O43242: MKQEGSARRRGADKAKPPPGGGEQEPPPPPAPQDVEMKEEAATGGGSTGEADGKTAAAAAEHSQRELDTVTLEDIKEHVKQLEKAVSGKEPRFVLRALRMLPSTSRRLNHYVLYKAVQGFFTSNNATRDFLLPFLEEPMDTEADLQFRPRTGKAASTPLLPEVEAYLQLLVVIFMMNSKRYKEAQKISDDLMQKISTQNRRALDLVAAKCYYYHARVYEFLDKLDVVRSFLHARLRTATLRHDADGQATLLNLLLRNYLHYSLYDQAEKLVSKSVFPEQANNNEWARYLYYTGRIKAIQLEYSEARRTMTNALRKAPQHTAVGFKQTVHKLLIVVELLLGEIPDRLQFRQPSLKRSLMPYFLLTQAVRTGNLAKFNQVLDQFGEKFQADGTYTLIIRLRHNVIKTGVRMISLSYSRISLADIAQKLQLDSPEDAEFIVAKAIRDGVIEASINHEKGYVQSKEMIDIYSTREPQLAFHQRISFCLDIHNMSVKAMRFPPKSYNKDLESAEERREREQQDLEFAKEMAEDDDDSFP
UniProt Q9BVA1: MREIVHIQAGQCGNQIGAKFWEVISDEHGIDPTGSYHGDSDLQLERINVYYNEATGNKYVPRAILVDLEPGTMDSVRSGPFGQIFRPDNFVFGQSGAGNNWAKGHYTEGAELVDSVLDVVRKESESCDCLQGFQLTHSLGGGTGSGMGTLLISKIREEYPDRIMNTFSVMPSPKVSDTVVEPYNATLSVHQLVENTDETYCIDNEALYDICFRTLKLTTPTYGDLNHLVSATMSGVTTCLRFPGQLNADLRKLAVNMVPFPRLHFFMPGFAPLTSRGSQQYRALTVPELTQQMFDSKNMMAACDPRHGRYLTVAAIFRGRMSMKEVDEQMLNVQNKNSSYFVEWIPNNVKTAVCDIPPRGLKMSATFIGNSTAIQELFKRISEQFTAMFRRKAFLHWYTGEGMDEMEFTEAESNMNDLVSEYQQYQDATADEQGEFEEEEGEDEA
UniProt P11532: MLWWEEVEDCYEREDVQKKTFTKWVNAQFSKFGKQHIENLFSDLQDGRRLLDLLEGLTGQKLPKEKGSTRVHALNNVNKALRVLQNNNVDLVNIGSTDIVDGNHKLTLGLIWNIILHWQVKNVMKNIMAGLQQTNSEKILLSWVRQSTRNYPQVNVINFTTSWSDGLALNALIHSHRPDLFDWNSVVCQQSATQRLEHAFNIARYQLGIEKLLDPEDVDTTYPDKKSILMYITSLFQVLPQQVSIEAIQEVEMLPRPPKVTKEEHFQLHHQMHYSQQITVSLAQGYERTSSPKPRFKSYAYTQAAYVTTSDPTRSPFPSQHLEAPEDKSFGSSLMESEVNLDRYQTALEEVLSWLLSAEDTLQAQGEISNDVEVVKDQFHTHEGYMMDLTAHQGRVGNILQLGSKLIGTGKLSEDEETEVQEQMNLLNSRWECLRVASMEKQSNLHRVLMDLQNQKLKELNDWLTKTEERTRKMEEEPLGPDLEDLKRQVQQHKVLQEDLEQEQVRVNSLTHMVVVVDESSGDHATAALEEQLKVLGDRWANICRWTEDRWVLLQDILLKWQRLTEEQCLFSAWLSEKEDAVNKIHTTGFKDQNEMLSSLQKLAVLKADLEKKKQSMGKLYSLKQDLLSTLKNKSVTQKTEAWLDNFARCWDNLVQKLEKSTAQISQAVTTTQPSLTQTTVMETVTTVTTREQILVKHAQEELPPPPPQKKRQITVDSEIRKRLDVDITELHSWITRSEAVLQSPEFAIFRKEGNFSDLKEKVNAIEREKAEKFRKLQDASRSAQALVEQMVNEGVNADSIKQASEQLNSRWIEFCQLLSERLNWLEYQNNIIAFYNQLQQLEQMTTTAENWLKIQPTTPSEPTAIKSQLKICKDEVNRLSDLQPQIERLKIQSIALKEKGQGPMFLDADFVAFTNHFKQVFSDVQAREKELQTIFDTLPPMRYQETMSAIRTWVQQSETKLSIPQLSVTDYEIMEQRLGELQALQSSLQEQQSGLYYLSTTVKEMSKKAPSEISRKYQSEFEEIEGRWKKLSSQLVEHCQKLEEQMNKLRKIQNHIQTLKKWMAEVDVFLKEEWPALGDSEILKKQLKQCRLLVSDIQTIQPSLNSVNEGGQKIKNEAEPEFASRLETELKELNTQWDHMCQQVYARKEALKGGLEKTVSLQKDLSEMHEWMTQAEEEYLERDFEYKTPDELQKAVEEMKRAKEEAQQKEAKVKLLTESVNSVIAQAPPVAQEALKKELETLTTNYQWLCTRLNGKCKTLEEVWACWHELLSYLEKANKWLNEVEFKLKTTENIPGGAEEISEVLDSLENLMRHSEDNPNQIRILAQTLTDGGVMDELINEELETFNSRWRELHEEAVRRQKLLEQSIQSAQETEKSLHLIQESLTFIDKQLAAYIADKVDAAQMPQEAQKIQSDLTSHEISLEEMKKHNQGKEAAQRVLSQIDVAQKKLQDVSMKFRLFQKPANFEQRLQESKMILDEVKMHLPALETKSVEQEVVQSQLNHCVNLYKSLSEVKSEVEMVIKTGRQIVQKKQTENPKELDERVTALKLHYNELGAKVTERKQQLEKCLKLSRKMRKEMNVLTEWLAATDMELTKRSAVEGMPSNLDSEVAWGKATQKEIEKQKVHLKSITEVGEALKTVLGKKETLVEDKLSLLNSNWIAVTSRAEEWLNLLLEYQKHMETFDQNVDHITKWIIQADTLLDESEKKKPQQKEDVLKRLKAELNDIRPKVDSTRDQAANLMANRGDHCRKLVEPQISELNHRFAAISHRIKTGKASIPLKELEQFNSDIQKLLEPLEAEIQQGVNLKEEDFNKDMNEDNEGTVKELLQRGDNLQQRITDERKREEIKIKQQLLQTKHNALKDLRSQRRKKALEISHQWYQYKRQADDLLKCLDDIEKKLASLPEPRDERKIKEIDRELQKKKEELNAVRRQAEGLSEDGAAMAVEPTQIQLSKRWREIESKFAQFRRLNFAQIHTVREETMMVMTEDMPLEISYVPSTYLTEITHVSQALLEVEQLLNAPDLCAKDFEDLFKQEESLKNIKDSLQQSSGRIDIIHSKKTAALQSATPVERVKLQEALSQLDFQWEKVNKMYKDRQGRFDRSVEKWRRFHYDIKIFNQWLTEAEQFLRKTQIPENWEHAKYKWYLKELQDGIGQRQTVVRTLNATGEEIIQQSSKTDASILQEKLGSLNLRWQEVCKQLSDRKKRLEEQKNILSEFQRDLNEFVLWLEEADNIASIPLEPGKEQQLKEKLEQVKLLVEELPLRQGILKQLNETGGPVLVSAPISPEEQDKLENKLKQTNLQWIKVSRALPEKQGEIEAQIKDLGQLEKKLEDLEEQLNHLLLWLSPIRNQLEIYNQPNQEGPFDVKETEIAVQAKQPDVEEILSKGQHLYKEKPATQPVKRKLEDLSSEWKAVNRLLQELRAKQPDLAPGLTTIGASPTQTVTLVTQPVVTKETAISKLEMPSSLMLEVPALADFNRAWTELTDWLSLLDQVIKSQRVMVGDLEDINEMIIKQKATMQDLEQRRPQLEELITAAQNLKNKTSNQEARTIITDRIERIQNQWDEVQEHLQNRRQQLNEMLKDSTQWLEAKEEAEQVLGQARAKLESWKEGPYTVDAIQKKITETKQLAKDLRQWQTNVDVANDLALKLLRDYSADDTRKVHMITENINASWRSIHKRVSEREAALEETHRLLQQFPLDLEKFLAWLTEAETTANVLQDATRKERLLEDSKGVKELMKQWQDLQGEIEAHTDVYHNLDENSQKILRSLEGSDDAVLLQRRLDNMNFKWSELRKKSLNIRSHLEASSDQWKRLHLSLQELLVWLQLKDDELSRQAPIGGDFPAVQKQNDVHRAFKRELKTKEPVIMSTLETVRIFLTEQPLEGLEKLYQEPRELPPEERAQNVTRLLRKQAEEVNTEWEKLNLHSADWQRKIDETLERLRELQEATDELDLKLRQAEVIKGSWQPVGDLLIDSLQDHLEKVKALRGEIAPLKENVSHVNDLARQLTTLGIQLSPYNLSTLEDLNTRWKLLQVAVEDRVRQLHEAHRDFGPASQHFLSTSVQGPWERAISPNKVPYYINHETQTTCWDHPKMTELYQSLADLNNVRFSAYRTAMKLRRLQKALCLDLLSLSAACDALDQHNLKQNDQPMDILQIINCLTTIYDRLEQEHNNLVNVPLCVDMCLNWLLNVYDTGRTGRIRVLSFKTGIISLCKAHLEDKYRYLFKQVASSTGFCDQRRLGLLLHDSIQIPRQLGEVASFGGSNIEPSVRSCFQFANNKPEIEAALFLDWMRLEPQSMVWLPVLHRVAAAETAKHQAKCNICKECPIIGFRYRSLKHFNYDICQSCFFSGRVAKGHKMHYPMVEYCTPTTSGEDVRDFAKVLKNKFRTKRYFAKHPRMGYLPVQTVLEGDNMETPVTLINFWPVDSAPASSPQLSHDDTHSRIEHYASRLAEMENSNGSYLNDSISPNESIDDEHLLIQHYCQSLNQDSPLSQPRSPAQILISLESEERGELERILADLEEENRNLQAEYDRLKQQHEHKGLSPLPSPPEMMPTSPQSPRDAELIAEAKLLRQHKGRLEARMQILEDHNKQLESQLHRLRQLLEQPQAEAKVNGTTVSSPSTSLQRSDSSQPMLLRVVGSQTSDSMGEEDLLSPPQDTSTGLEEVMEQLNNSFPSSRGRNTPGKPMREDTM
UniProt Q13425: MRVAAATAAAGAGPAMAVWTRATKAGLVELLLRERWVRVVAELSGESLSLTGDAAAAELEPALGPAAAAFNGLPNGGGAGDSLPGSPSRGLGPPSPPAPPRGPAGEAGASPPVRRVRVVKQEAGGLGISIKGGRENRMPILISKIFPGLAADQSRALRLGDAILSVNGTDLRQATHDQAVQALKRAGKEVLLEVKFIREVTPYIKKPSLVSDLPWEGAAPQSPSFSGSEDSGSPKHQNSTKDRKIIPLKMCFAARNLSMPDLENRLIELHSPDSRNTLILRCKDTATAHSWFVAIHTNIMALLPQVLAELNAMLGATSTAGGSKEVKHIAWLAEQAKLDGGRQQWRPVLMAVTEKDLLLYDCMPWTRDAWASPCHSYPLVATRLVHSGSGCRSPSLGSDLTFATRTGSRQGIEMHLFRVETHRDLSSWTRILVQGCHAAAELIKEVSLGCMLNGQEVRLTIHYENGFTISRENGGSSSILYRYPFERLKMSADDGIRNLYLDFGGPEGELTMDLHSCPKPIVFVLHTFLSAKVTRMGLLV

In assay [1] the target is Flag::SseM (Salmonella enterica serovar Typhimurium) (UniProt Q8ZMM9). The assay is described as follows: affinity purification with mass spectrometry; anti-Flag M2 affinity gel on lysates of HEK293 cells transiently transfected with pflag::sseM or pflag::spvD for 16 h; buffers B and C; LC-MS/MS.
In assay [2] the target is Flag::SpvD (S. Typhimurium 12023 (stated for pgfp::spvD)). Described as above.

Results are given in words; binding and its absence hold for the method and conditions named. In cells and extracts the contact can be indirect. These calls come from enrichment with a bait or labelling near it, and not all partners need be listed. For some assays here: No binding means not detected with the bait.

As to “26S proteasome non-ATPase regulatory subunit 3 (from UniProt O43242 1-534)”, the binding entry in assay [1] is “binds”.

Regarding “Tubulin β-2B chain (from UniProt Q9BVA1 1-445)”, the binding entry in assay [1] is recorded as “binds”.

Dystrophin (from UniProt P11532 1-3685): the binding result in assay [1] is given as “binds”.

For “β-2-syntrophin (from UniProt Q13425 1-540)”, the binding result in assay [1] was “binds”.

On to Utrophin (from UniProt P46939 1-3433), for which the binding result in assay [1] is “binds”.

B1: α-dystrobrevin (protein, UniProt Q9Y4J8 1-743)
chain: MIEDSGKRGNTMAERRQLFAEMRAQDLDRIRLSTYRTACKLRFVQKKCNLHLVDIWNVIEALRENALNNLDPNTELNVSRLEAVLSTIFYQLNKRMPTTHQIHVEQSISLLLNFLLAAFDPEGHGKISVFAVKMALATLCGGKIMDKLRYIFSMISDSSGVMVYGRYDQFLREVLKLPTAVFEGPSFGYTEQSARSCFSQQKKVTLNGFLDTLMSDPPPQCLVWLPLLHRLANVENVFHPVECSYCHSESMMGFRYRCQQCHNYQLCQDCFWRGHAGGSHSNQHQMKEYTSWKSPAKKLTNALSKSLSCASSREPLHPMFPDQPEKPLNLAHIVDTWPPRPVTSMNDTLFSHSVPSSGSPFITRSSPPKDSEVEQNKLLARAAPAFLKGKGIQYSLNVADRLADEHVLIGLYVNMLRNNPSCMLESSNRLDEEHRLIARYAARLAAESSSSQPPQQRSAPDISFTIDANKQQRQLIAELENKNREILQEIQRLRLEHEQASQPTPEKAQQNPTLLAELRLLRQRKDELEQRMSALQESRRELMVQLEGLMKLLKTQGAGSPRSSPSHTISRPIPMPIRSASACSTPTHTPQDSLTGVGGDVQEAFAQSSRRNLRNDLLVAADSITNTMSSLVKELNSEVGSETESNVDSEFARTQFEDLVPSPTSEKAFLAQIHARKPGYIHSGATTSTMRGDMVTEDADPYVQPEDENYENDSVRQLENELQMEEYLKQKLQDEAYQVSLQG
Take B1: the binding entry in assay [2] was “no binding”.

B2: α-1-Syntrophin (protein, UniProt Q13424 1-505)
chain: MASGRRAPRTGLLELRAGAGSGAGGERWQRVLLSLAEDVLTVSPADGDPGPEPGAPREQEPAQLNGAAEPGAGPPQLPEALLLQRRRVTVRKADAGGLGISIKGGRENKMPILISKIFKGLAADQTEALFVGDAILSVNGEDLSSATHDEAVQVLKKTGKEVVLEVKYMKDVSPYFKNSTGGTSVGWDSPPASPLQRQPSSPGPTPRNFSEAKHMSLKMAYVSKRCTPNDPEPRYLEICSADGQDTLFLRAKDEASARSWATAIQAQVNTLTPRVKDELQALLAATSTAGSQDIKQIGWLTEQLPSGGTAPTLALLTEKELLLYLSLPETREALSRPARTAPLIATRLVHSGPSKGSVPYDAELSFALRTGTRHGVDTHLFSVESPQELAAWTRQLVDGCHRAAEGVQEVSTACTWNGRPCSLSVHIDKGFTLWAAEPGAARAVLLRQPFEKLQMSSDDGASLLFLDFGGAEGEIQLDLHSCPKTIVFIIHSFLSAKVTRLGLLA
B2: the binding result in assay [1] is reported as “binds”.

B3: β-1-Syntrophin (protein, UniProt Q13884 1-538)
chain: MAVAAAAAAAGPAGAGGGRAQRSGLLEVLVRDRWHKVLVNLSEDALVLSSEEGAAAYNGIGTATNGSFCRGAGAGHPGAGGAQPPDSPAGVRTAFTDLPEQVPESISNQKRGVKVLKQELGGLGISIKGGKENKMPILISKIFKGLAADQTQALYVGDAILSVNGADLRDATHDEAVQALKRAGKEVLLEVKYMREATPYVKKGSPVSEIGWETPPPESPRLGGSTSDPPSSQSFSFHRDRKSIPLKMCYVTRSMALADPENRQLEIHSPDAKHTVILRSKDSATAQAWFSAIHSNVNDLLTRVIAEVREQLGKTGIAGSREIRHLGWLAEKVPGESKKQWKPALVVLTEKDLLIYDSMPRRKEAWFSPVHTYPLLATRLVHSGPGKGSPQAGVDLSFATRTGTRQGIETHLFRAETSRDLSHWTRSIVQGCHNSAELIAEISTACTYKNQECRLTIHYENGFSITTEPQEGAFPKTIIQSPYEKLKMSSDDGIRMLYLDFGGKDGEIQLDLHSCPKPIVFIIHSFLSAKITRLGLVA
With B3, the binding result in assay [1] is recorded as “binds”.

B4: α-Catulin (protein, UniProt Q9UBT7 1-734)
chain: MAASPGPAGVGGAGAVYGSGSSGFALDSGLEIKTRSVEQTLLPLVSQITTLINHKDNTKKSDKTLQAIQRVGQAVNLAVGRFVKVGEAIANENWDLKEEINIACIEAKQAGETIAALTDITNLNHLESDGQITIFTDKTGVIKAARLLLSSVTKVLLLADRVVIKQIITSRNKVLATMERLEKVNSFQEFVQIFSQFGNEMVEFAHLSGDRQNDLKDEKKKAKMAAARAVLEKCTMMLLTASKTCLRHPNCESAHKNKEGVFDRMKVALDKVIEIVTDCKPNGETDISSISIFTGIKEFKMNIEALRENLYFQSKENLSVTLEVILERMEDFTDSAYTSHEHRERILELSTQARMELQQLISVWIQAQSKKTKSIAEELELSILKISHSLNELKKELHSTATQLAADLLKYHADHVVLKALKLTGVEGNLEALAEYACKLSEQKEQLVETCRLLRHISGTEPLEITCIHAEETFQVTGQQIISAAETLTLHPSSKIAKENLDVFCEAWESQISDMSTLLREINDVFEGRRGEKYGYLSLPKPMKNNANLKSLKPDKPDSEEQAKIAKLGLKLGLLTSDADCEIEKWEDQENEIVQYGRNMSSMAYSLYLFTRGEGPLKTSQDLIHQLEVFAAEGLKLTSSVQAFSKQLKDDDKLMLLLEINKLIPLCHQLQTVTKTSLQNKVFLKVDKCITKTRSMMALLVQLLSLCYKLLKKLQMENNGWVSVTNKDTMDSKT
With B4, the binding entry was “no binding” in assay [2] and “binds” in assay [1].

B5: β-Dystrobrevin (protein, UniProt O60941 1-627)
chain: MIEESGNKRKTMAEKRQLFIEMRAQNFDVIRLSTYRTACKLRFVQKRCNLHLVDIWNMIEAFRDNGLNTLDHTTEISVSRLETVISSIYYQLNKRLPSTHQISVEQSISLLLNFMIAAYDSEGRGKLTVFSVKAMLATMCGGKMLDKLRYVFSQMSDSNGLMIFSKFDQFLKEVLKLPTAVFEGPSFGYTEHSVRTCFPQQRKIMLNMFLDTMMADPPPQCLVWLPLMHRLAHVENVFHPVECSYCRCESMMGFRYRCQQCHNYQLCQNCFWRGHAGGPHSNQHQMKEHSSWKSPAKKLSHAISKSLGCVPTREPPHPVFPEQPEKPLDLAHIVPPRPLTNMNDTMVSHMSSGVPTPTKRLQYSQDIPSHLADEHALIASYVARLQHCARVLDSPSRLDEEHRLIARYAARLAAEAGNVTRPPTDLSFNFDANKQQRQLIAELENKNREILQEIQRLRLEHEQASQPTPEKAQQNPTLLAELRLLRQRKDELEQRMSALQESRRELMVQLEELMKLLKEEEQKQAAQATGSPHTSPTHGGGRPMPMPVRSTSAGSTPTHCPQDSLSGVGGDVQEAFAQGTRRNLRNDLLVAADSITNTMSSLVKELHSAEEGAEEEEEKMQNGKDRG
As for B5, the figures for the binding entry in assay [2] and in assay [1] were “no binding” and “binds”, respectively.

B6: Protein lin-7 homolog C (protein, UniProt Q9NUP9 1-197)
chain: MAALGEPVRLERDICRAIELLEKLQRSGEVPPQKLQALQRVLQSEFCNAVREVYEHVYETVDISSSPEVRANATAKATVAAFAASEGHSHPRVVELPKTEEGLGFNIMGGKEQNSPIYISRIIPGGIADRHGGLKRGDQLLSVNGVSVEGEHHEKAVELLKAAQGKVKLVVRYTPKVLEEMESRFEKMRSAKRRQQT
For B6, the binding entry in assay [2] is given as “no binding”; in assay [1], “binds”.
